Values from PubChem BioAssay AID1224831 (NIAID, 2016).
This is an unselected part of about 3,500 reagents tested. 731 of all reagents (21%) count as active. 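Active means either lowered or raised reporter signal; the gene-median score did not drive the per-siRNA calls.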 Unmarked entries are inactive.

Screen: 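Genes that support or restrain LPS-induced TNF-alpha reporter activity in macrophage-like cells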 (follow-up of hits)
System: human THP-1 B5 monocytic leukaemia cells carrying a TNF promoter luciferase reporter, made macrophage-like with PMA
Reagents: single siRNA against human genes, 50 nM
Duration: about 68 h of knock-down, then 4 h LPS
Treatment: LPS (Salmonella minnesota, TLR-grade) at 10 ng/ml for 4 h; PMA 5 ng/ml present during knock-down
Detection: 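Firefly to renilla luciferase ratio of a TNF promoter reporter after 4 h LPS, scaled to plate median, turned into robust z-score, averaged over replicates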
Direction: TNF reporter z-score: higher = stronger LPS-induced TNF reporter signal; z-score, median over gene's siRNAs: higher = stronger TNF reporter signal across the gene's siRNAs
Active means: 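Two-sided call: reduced or raised TNF reporter signal counts as active once mean z reaches about -1 or below, or about 1.5 or above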
Meaning of the calls: active = changed TNF reporter (either direction); inactive = little change

| Gene | PubChem SID | TNF reporter z-score, replicate mean | z-score, median over gene's siRNAs |
| --- | --- | --- | --- |
| LIAT1 (GeneID 400566) | SID315489219 | 0.01 | 0.405 |
| LIAT1 (GeneID 400566) | SID315489220 | 0.69 | 0.405 |
| LIAT1 (GeneID 400566) | SID315489221 | 0.61 | 0.405 |
| LIAT1 (GeneID 400566) | SID315489222 | 0.2 | 0.405 |
| LIAT1 (GeneID 400566) | SID315489223 | -0.91 | 0.405 |
| LIAT1 (GeneID 400566) | SID315489224 | 1.95 (active) | 0.405 |
| PHC2 (GeneID 1912) | SID315482292 | -0.5 | -0.205 |
| PHC2 (GeneID 1912) | SID315482293 | 1.24 | -0.205 |
| PHC2 (GeneID 1912) | SID315482294 | -0.26 | -0.205 |
| PHC2 (GeneID 1912) | SID315482295 | -0.15 | -0.205 |
| PHC2 (GeneID 1912) | SID315482296 | 1.51 (active) | -0.205 |
| PHC2 (GeneID 1912) | SID315482297 | -0.31 | -0.205 |
| POMP (GeneID 51371) | SID315485529 | -2.77 (active) | -1.62 |
| POMP (GeneID 51371) | SID315485530 | -1.75 (active) | -1.62 |
| POMP (GeneID 51371) | SID315485531 | -2.1 (active) | -1.62 |
| POMP (GeneID 51371) | SID315485532 | -1.5 (active) | -1.62 |
| POMP (GeneID 51371) | SID315485533 | -0.39 | -1.62 |
| POMP (GeneID 51371) | SID315485534 | 0.64 | -1.62 |
| CPNE8 (GeneID 144402) | SID315487818 | 0.46 | 0.54 |
| CPNE8 (GeneID 144402) | SID315487819 | 0.62 | 0.54 |
| CPNE8 (GeneID 144402) | SID315487820 | 1.21 | 0.54 |
| CPNE8 (GeneID 144402) | SID315487821 | -0.24 | 0.54 |
| CPNE8 (GeneID 144402) | SID315487822 | 3.81 (active) | 0.54 |
| CPNE8 (GeneID 144402) | SID315487823 | -0.47 | 0.54 |
| HAGH (GeneID 3029) | SID315482412 | -0.28 | -0.565 |
| HAGH (GeneID 3029) | SID315482413 | 1.95 (active) | -0.565 |
| HAGH (GeneID 3029) | SID315482414 | -0.85 | -0.565 |
| HAGH (GeneID 3029) | SID315482415 | -1.31 (active) | -0.565 |
| HAGH (GeneID 3029) | SID315482416 | 10.3 (active) | -0.565 |
| HAGH (GeneID 3029) | SID315482417 | -0.9 | -0.565 |
| ROR1 (GeneID 4919) | SID315482634 | -0.72 | -0.195 |
| ROR1 (GeneID 4919) | SID315482635 | -0.19 | -0.195 |
| ROR1 (GeneID 4919) | SID315482636 | 0.86 | -0.195 |
| ROR1 (GeneID 4919) | SID315482637 | -0.2 | -0.195 |
| ROR1 (GeneID 4919) | SID315482638 | -0.32 | -0.195 |
| ROR1 (GeneID 4919) | SID315482639 | 0.4 | -0.195 |

Taken from above:
HAGH (GeneID 3029) [SID315482412], TNF reporter z-score, replicate mean = -0.28
PHC2 (GeneID 1912) [SID315482296], TNF reporter z-score, replicate mean → 1.51 (active)
POMP (GeneID 51371) [SID315485531], TNF reporter z-score, replicate mean → -2.1 (active)
Under “TNF reporter z-score, replicate mean”, POMP (GeneID 51371) [SID315485529] shows -2.77 (active)
POMP (GeneID 51371) [SID315485532], z-score, median over gene's siRNAs = -1.62 (active)
